The source of these data is paper PMC8795149, “Characterization of a novel non-steroidal glucocorticoid receptor agonist optimized for topical treatment” (Scientific Reports, 2022).

Certain results were filed several times, with different values. This is not the full list of results. An entry can have further records. The values listed for one entry differ for a reason that is not stated; they may come from other doses, times, organisms or constructs than stated.

This series can be described thus: Predicted clearance and half-life in man by allometric scaling of clearance in dogs. As to the method:
The predicted clearance of LEO 134310 in man is 300 mL/min/kg (15-fold the liver blood flow) based on allometric scaling of clearance in dogs, using 0.75 as scaling factor. The corresponding predicted half-life is < 5 min, which is in line with the measured in vitro half-life of LEO 134310 in human blood (4.4 min) (Table 2).
To evaluate allometric scaling, actual clearance in dog and man were extracted from the literature for 6 ester drugs[27]–[38].

`C[C@H](NC(=O)[C@H]1CCCO1)[C@H](Oc1ccc(C(=O)O[C@H]2CCCN(C(=O)[C@H]3COC(=O)C3)C2)cc1)c1ccc(C2CC2)cc1` [LEO 134310]: the “Predicted clearance in man relative to liver blood flow” value was 15 fold and more than 10 fold.
